Test results: PubChem BioAssay AID192 (DTP/NCI, 2004)
The list does not hold the whole screen: it is rich in T/C values a quarter to a half above the control, in often repeated tests (any T/C) and in doses without a T/C. Further doses and runs are listed elsewhere. T/C is the treated group as % of the vehicle group. Some entries give survivors of the animals treated and no T/C: the source holds a T/C of zero for them, seemingly a mark for toxic or unscored doses. Some survivor counts are full or nearly so, which does not show that the dose was tolerated: the source hardly ever lists a survival T/C far under the control, and the zero likely stands for such cases as well. Survivors were counted at the toxicity check, usually on the fifth day, unless a day is given; later deaths do not show. Schedules are NCI's codes, read here as Q, the interval in days (D) or hours (H), X, the number of doses. Where survival is the endpoint, this PubChem deposit counts one and a half times the control or more as active, and values a quarter to a half above the control carry no call in these data; other NCI protocols may use other cut-offs. Some doses were run more than once; their values stand side by side, smallest first.

System: BDF1 mice, B16 melanoma ip, median survival T/C
Experiment: NCI In Vivo Anticancer Drug Screen. Data for tumor model B16 Melanoma (intraperitoneal) in B6D2F1 (BDF1) mice
Conditions: T/C endpoint: median survival time, higher T/C = longer survival
Procedure, shortened: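 Mice with transplantable tumors; drug vs vehicle groups; endpoint survival or tumor size; value = T/C.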

[1] = dose: 100.0 mg/kg/injection, schedule: Q01DX009 (ip), vehicle: saline with Tween-80
[2] = dose: 12.0 mg/kg/injection, schedule: Q01DX009 (ip), vehicle: Klucel (hydroxypropylcellulose) (HPC)
[3] = dose: 200.0 mg/kg/injection, schedule: Q01DX009 (ip), vehicle: saline
[4] = dose: 200.0 mg/kg/injection, schedule: Q01DX009 (ip), vehicle: Klucel (hydroxypropylcellulose) (HPC)
[5] = dose: 400.0 mg/kg/injection, schedule: Q01DX009 (ip), vehicle: saline with Tween-80
[6] = dose: 25.0 mg/kg/injection, schedule: Q01DX009 (ip), vehicle: saline with Tween-80
[7] = dose: 50.0 mg/kg/injection, schedule: Q01DX009 (ip), vehicle: saline with Tween-80
[8] = dose: 100.0 mg/kg/injection, schedule: Q01DX009 (ip), vehicle: Klucel (hydroxypropylcellulose) (HPC)
[9] = dose: 50.0 mg/kg/injection, schedule: Q01DX009 (ip), vehicle: saline
[10] = dose: 200.0 mg/kg/injection, schedule: Q04DX003 (ip), vehicle: saline with Tween-80

**Q.** Which results are given for `CCCCCNC(=O)Nc1cccc(Cl)c1C`?
**A.** survivor count [1]: 10 of 10; survivor count (dose: 200.0 mg/kg/injection, schedule: Q01DX009 (ip), vehicle: saline with Tween-80): 8 of 10

**Q.** Which T/C (dose: 30.0 mg/kg/injection, schedule: Q01DX009 (ip), vehicle: saline + alcohol) does the source give for `CC(=O)C1=C(O)C2(O)C(=O)c3c(c(C)c4ccc(C)c(O)c4c3O)CC2C(N)C1=O` (configuration not stated) here?
**A.** 127 % of control

**Q.** What about the T/C (dose: 60.0 mg/kg/injection, schedule: Q01DX009 (ip), vehicle: saline + alcohol) of the same compound?
**A.** 145 % of control

**Q.** What about the survivor count (dose: 120.0 mg/kg/injection, schedule: Q01DX009 (ip), vehicle: saline + alcohol) of the same compound?
**A.** 2 of 10

**Q.** `CC(C)C[CH2][Pb]([Cl])([CH2]CC(C)C)[CH2]CC(C)C` was tested. Which survivor count (dose: 0.25 mg/kg/injection, schedule: Q01DX009 (ip), vehicle: Klucel (hydroxypropylcellulose) (HPC)) did it give?
**A.** 10 of 10

**Q.** Which T/C (dose: 0.75 mg/kg/injection, schedule: Q01DX009 (ip), vehicle: Klucel (hydroxypropylcellulose) (HPC)) does the source give for `C[n+]1c2ccccc2c(Nc2ccc(NS(=O)(=O)CCCCN=C(N)N)cc2)c2ccc(N)cc21` here?
**A.** 127 % of control

**Q.** And the T/C (dose: 1.5 mg/kg/injection, schedule: Q01DX009 (ip), vehicle: Klucel (hydroxypropylcellulose) (HPC))?
**A.** 142 % of control

**Q.** And the T/C (dose: 1.5 mg/kg/injection, schedule: Q01DX009 (ip), vehicle: water)?
**A.** 132 and 138 % of control

**Q.** And the T/C (dose: 3.0 mg/kg/injection, schedule: Q01DX009 (ip), vehicle: water)?
**A.** 148 % of control

**Q.** What about the T/C (dose: 3.12 mg/kg/injection, schedule: Q04DX003 (ip), vehicle: water) of the same compound?
**A.** 131 % of control

**Q.** And the T/C (dose: 6.25 mg/kg/injection, schedule: Q04DX003 (ip), vehicle: water)?
**A.** 144 % of control

**Q.** And the survivor count [2]?
**A.** 10 of 10

**Q.** And the survivor count (dose: 24.0 mg/kg/injection, schedule: Q01DX009 (ip), vehicle: Klucel (hydroxypropylcellulose) (HPC))?
**A.** 10 of 10

**Q.** What about the survivor count (dose: 24.0 mg/kg/injection, schedule: Q01DX009 (ip), vehicle: water) of the same compound?
**A.** 9 of 10

**Q.** What about the survivor count (dose: 50.0 mg/kg/injection, schedule: Q04DX003 (ip), vehicle: water) of the same compound?
**A.** 5 of 10

**Q.** With `CC(C)C(N)C(=O)Nc1nncs1` (configuration not stated) as the compound, how does the survivor count [3] read?
**A.** 10 of 10

**Q.** What about the survivor count (dose: 400.0 mg/kg/injection, schedule: Q01DX009 (ip), vehicle: saline) of the same compound?
**A.** 9 of 10

**Q.** Which results are given for `CN(C)CCOc1ccccc1Cc1ccccc1`?
**A.** survivor count (dose: 12.5 mg/kg/injection, schedule: Q01DX009 (ip), vehicle: saline): 3 of 10; survivor count (dose: 100.0 mg/kg/injection, schedule: Q01DX009 (ip), vehicle: saline): 7 of 10; survivor count [3]: 6 of 10

**Q.** With `CCCCCCCCCCCCCCCCCCOC(=O)Cc1ccc(N(CCCl)CCCl)cc1` as the compound, how does the survivor count (dose: 400.0 mg/kg/injection, schedule: Q04DX003 (ip), vehicle: saline with Tween-80) read?
**A.** 10 of 10

**Q.** What about the survivor count (dose: 600.0 mg/kg/injection, schedule: Q04DX003 (ip), vehicle: saline with Tween-80) of the same compound?
**A.** 10 of 10

**Q.** Which survivor count [4] does the source give for `CCCN(CCC)C(=O)c1ccncc1` here?
**A.** 10 of 10

**Q.** How did the survivor count (dose: 50.0 mg/kg/injection, schedule: Q01DX009 (ip), vehicle: Klucel (hydroxypropylcellulose) (HPC)) turn out when `CC1(C)N=C(N)N=C(N)N1c1cc(Cl)c(Cl)cc1Cl` was run?
**A.** 6 of 10

**Q.** For `FC(F)(F)c1ccc2c(c1)N(CCCN1CCN(CCN3CCOCC3)CC1)c1ccccc1S2`, which survivor count (dose: 4.4 mg/kg/injection, schedule: Q01DX009 (ip), vehicle: saline) is on record?
**A.** 10 of 10

**Q.** What about the survivor count (dose: 6.8 mg/kg/injection, schedule: Q01DX009 (ip), vehicle: saline) of the same compound?
**A.** 7 of 10

**Q.** What about the survivor count (dose: 10.0 mg/kg/injection, schedule: Q01DX009 (ip), vehicle: saline) of the same compound?
**A.** 9 of 10

**Q.** With `Cc1ccc([N+](=O)[O-])c2ccccc12` as the compound, how does the survivor count [5] read?
**A.** 10 of 10

**Q.** With `c1cc(NC2CCCCC2)ccc1CN1CCOCC1` as the compound, how does the survivor count (dose: 400.0 mg/kg/injection, schedule: Q01DX009 (ip), vehicle: saline + Tween-80 + alcohol) read?
**A.** 10 of 10

**Q.** What does the source list for `O=C(CC1(Cl)C(F)(F)C(F)(F)C1(F)F)c1ccccc1`?
**A.** survivor count (dose: 6.0 mg/kg/injection, schedule: Q04DX003 (ip), vehicle: saline): 10 of 10; survivor count (dose: 6.25 mg/kg/injection, schedule: Q01DX009 (ip), vehicle: saline with Tween-80): 10 of 10; T/C (dose: 6.25 mg/kg/injection, schedule: Q04DX003 (ip), vehicle: saline with Tween-80): 141 % of control; survivor count (dose: 9.0 mg/kg/injection, schedule: Q04DX003 (ip), vehicle: saline): 10 of 10; T/C (dose: 12.5 mg/kg/injection, schedule: Q04DX003 (ip), vehicle: saline with Tween-80): 128 % of control; survivor count [6]: 10 of 10

**Q.** `O=C1C=C(N2CC2)C(=O)C(N2CC2)=C1N1CC1` was tested. Which T/C (dose: 12.0 micrograms/kg/injection, schedule: Q01DX009 (ip), vehicle: saline) did it give?
**A.** 126 % of control

**Q.** And the T/C (dose: 25.0 micrograms/kg/injection, schedule: Q01DX009 (ip), vehicle: saline)?
**A.** 126 and 130 % of control

**Q.** What about the survivor count (dose: 50.0 micrograms/kg/injection, schedule: Q01DX009 (ip), vehicle: saline) of the same compound?
**A.** 10 of 10

**Q.** For `Nc1ncnc2c1cnn2C1OC(CO)C(O)C1O` (configuration not stated), which survivor count [7] is on record?
**A.** 9 of 10

**Q.** `CCc1cnccc1C` was tested. Which survivor count [8] did it give?
**A.** 6 of 10

**Q.** Which survivor count [9] does the source give for `CCN(CC)CCCC(C)NC/C=C/CNC(C)CCCN(CC)CC` (configuration not stated) here?
**A.** 5 of 10

**Q.** How did the survivor count [5] turn out when `COC(=O)C(Cl)(Cl)N=Nc1c(Cl)cc(Cl)c(C)c1Cl` was run?
**A.** 7 of 10

**Q.** Which survivor count [8] does the source give for `CCCCOB(/C=C/Sc1ccccc1)OCCCC` here?
**A.** 10 of 10

**Q.** And the survivor count [4]?
**A.** 5 of 10

**Q.** Which survivor count (dose: 3.0 mg/kg/injection, schedule: Q01DX009 (ip), vehicle: Klucel (hydroxypropylcellulose) (HPC)) does the source give for `Cc1ccc([I+]c2ccc(C)cc2C)c(C)c1` here?
**A.** 10 of 10

**Q.** What about the survivor count [2] of the same compound?
**A.** 10 of 10

**Q.** For `C[Si](C)(O[Si](C)(C)c1ccccc1)c1ccccc1`, which T/C [9] is on record?
**A.** 129 % of control

**Q.** What does the source list for `C/C=C\C1OC1(C)c1cc(=O)c2c(C)cc3c(c2o1)C(=O)c1c(O)c(C2CC(C)(N(C)C)C(OC(C)=O)C(C)O2)cc(C2CC(N(C)C)C(O)C(C)O2)c1C3=O` (configuration not stated)?
**A.** survivor count (dose: 1.4 mg/kg/injection, schedule: Q01DX009 (ip), vehicle: saline with Tween-80): 5 of 6; survivor count (dose: 2.8 mg/kg/injection, schedule: Q01DX009 (ip), vehicle: saline with Tween-80): 4 of 6

**Q.** For `CCc1c(CC(=O)O)c2cc(C)ccc2n1Cc1ccc(Cl)cc1`, which survivor count [10] is on record?
**A.** 1 of 10

**Q.** Which results are given for `Cc1c2c(cc3c1[nH]c1ccccc13)C(c1ccc(Cl)cc1)=NCC2`?
**A.** survivor count (dose: 12.5 mg/kg/injection, schedule: Q01DX009 (ip), vehicle: saline with Tween-80): 6 of 6; survivor count [6]: 6 of 6; survivor count [7]: 6 of 6; survivor count (dose: 100.0 mg/kg/injection, schedule: Q01DX009 (ip), vehicle: saline sonified): 6 of 6; survivor count (dose: 200.0 mg/kg/injection, schedule: Q01DX009 (ip), vehicle: saline sonified): 6 of 6; survivor count (dose: 400.0 mg/kg/injection, schedule: Q01DX009 (ip), vehicle: saline sonified): 6 of 6

**Q.** `COc1nc(NC(C)C)nc(NC(C)C)n1` was tested. Which T/C [1] did it give?
**A.** 125 % of control

**Q.** Which T/C (dose: 25.0 mg/kg/injection, schedule: Q01DX009 (ip), vehicle: Klucel (hydroxypropylcellulose) (HPC)) does the source give for `N#CC(=C1C=CC(=NO)C=C1)c1ccccc1` here?
**A.** 125 % of control

**Q.** How did the survivor count (dose: 100.0 mg/kg/injection, schedule: Q04DX003 (ip), vehicle: Klucel (hydroxypropylcellulose) (HPC)) turn out when `COC(=O)/C=C/c1ccc(OC)cc1` was run?
**A.** 10 of 10

**Q.** `Cc1cccc(CN2CCN(C(c3ccccc3)c3ccc(Cl)cc3)CC2)c1` (configuration not stated) was tested. Which survivor count [8] did it give?
**A.** 10 of 10

**Q.** And the survivor count [4]?
**A.** 3 of 10

**Q.** What about the survivor count (dose: 200.0 mg/kg/injection, schedule: Q04DX003 (ip), vehicle: Klucel (hydroxypropylcellulose) (HPC)) of the same compound?
**A.** 10 of 10

**Q.** And the survivor count (dose: 400.0 mg/kg/injection, schedule: Q04DX003 (ip), vehicle: Klucel (hydroxypropylcellulose) (HPC))?
**A.** 9 of 10

**Q.** `CCOC(=O)N1Cc2cc3cc(Cl)ccc3nc2C1` was tested. Which T/C (dose: 128.0 mg/kg/injection, schedule: Q01DX009 (ip), vehicle: saline with Tween-80) did it give?
**A.** 126 % of control

**Q.** With `ClC(Cl)(Cl)C(Nc1ccccc1)Nc1ccccc1` as the compound, how does the survivor count (dose: 12.5 mg/kg/injection, schedule: Q01DX009 (ip), vehicle: Klucel (hydroxypropylcellulose) (HPC)) read?
**A.** 10 of 10

**Q.** With `Cc1cc(O)c(C)c(C)c1Cl` as the compound, how does the survivor count [10] read?
**A.** 10 of 10
